This experiment deals with T1, SNAP-PD-L2-His (ectodomain of human PD-L2, aa 20–220) (human) (UniProt Q9BQ51).
T1 sequence (chain, SNAP-Cell 505 (SC505) on the SNAP-tag): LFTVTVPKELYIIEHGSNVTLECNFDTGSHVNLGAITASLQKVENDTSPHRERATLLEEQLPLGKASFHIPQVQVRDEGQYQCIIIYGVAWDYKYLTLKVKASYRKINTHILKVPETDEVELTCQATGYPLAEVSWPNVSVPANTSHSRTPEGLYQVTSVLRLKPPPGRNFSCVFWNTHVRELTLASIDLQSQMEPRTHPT
Put plainly: FRET or BRET. Background: Bioluminescence resonance energy transfer reports proximity on the nanometre scale.

These are yes or no findings as the source states them, for the method shown. Sequences can lack the tags named with a protein.

As for “SNAP-CD80-His (ectodomain of human CD80, aa 35–242) (from UniProt P33681 35-242) (domain or fragment)”, the binding entry is listed as “no binding”.

Values taken from paper doi:10.1101/615138.
